Assay results published in PubChem BioAssay AID504842 (National Center for Advancing Translational Sciences (NCATS), 2011).
Hit rate of the full screen: of about 330,000 compounds, about 100 (0.03%) were called active. This list was built around the results that the source calls inconclusive (neither active nor inactive); the mix of calls is not that of the screen. The call rests on the fitted dose curve; in most records, active means well fitted inhibition curve with a large enough effect; inconclusive means small, poorly fitted or top-dose-only effect; inactive means flat fitted curve, though single readings scatter. A potency beside an inconclusive call is a rough fit, not a confirmed value.

Tested on: Chaperonin Mm-Cpn (Methanococcus maripaludis)
Assay: Inhibitors of TCP-1 ring complex (TRiC) of Methanococcus maripaludis (MmCpn): qHTS; further: nearly all actives have a fitted effect of over 80% in size;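 on potency: enzyme at 25 nM with ATP substrate at 10 µM during the reaction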
Conditions: purified Mm-Cpn ATPase, ADP Transcreener TR-FRET
Outline: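 TR-FRET (320 nm excitation; 590 and 665 nm emission) reports ADP made from 10 uM ATP by 25 nM enzyme; compounds were preincubated 10 min, reaction run 30 min, both at 37°C.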
Potency means the concentration at half of the fitted maximal effect.

SMILES	Potency
Cn1cc(C(=O)c2ccc(Cl)cc2Cl)cc1C(=O)O	inconclusive: 89.1 µM [inhibitor, single point]
COc1ccc(-n2nc(C(=O)NCc3cc(OC)ccc3OC)c3c4ccccc4n(C)c3c2=O)cc1	inconclusive: 50.1 µM [inhibitor, single point]
O=C(CCCNC(=O)c1ccc(Cl)cc1)Nc1cccc(F)c1	inconclusive: 44.7 µM [inhibitor, single point]
COc1ccc(S(=O)(=O)N2CCCCC2)cc1NC(=O)CSc1ncnc2ccccc12	inconclusive: 100 µM [inhibitor, single point]
COc1ccc(C(=O)NCc2ccc3c(c2)cc(C)n3C)cc1OC	inconclusive: 100 µM [inhibitor, single point]
CCN1CCN(c2cc(N3CCN(C(=O)c4ccco4)CC3)c3c4c(onc24)-c2ccccc2C3=O)CC1	inactive
COc1cc(C#N)c(NS(=O)(=O)c2ccc3[nH]c(=O)sc3c2)cc1OC	inconclusive: 63.1 µM [inhibitor, single point]
COc1ccc(OCCCC(=O)OCC(=O)NNC(=O)c2ccc([N+](=O)[O-])cc2)cc1	inactive
COc1cc(/C=N/NC(=O)C(=O)NCC2CCCO2)cc(Cl)c1O (stereo not given)	inconclusive: 70.8 µM [inhibitor, single point]
COc1ccccc1NC(=O)CSc1nc2sc(C)c(C)c2c(=O)n1C	inactive
C=C1SC(=Nc2ccccc2Cl)N(C(=O)c2sc3ccccc3c2Cl)C12CCCCC2	inconclusive: 63.1 µM [inhibitor, partial curve]
COc1ccccc1-c1sc2ccccc2c1-c1ccc(Br)nc1	inconclusive: 22.4 µM [inhibitor, partial curve, poor fit]
O=C(Cn1ncc(Cl)c(Cl)c1=O)NCC1CCCCC1	inconclusive: 100 µM [inhibitor, single point]
CC(C)Nc1nc(NC(C)C)nc(N(C#N)C(C)C(=O)N(C)C)n1 (stereo not given)	inconclusive: 112 µM [inhibitor, partial curve]
Cc1ccc(C(=O)O)cc1NC(=S)NC(=O)c1ccc(COc2ccccc2)cc1	inactive
O=C(Nc1nc2cc3c(cc2s1)OCO3)c1ccc(N2C(=O)CCC2=O)cc1	inconclusive: 112 µM [inhibitor, single point]
Cc1cc2cc(CNC(=O)Nc3cccc(Cl)c3)ccc2n1C	inconclusive: 89.1 µM [inhibitor, partial curve, poor fit]
Cc1nc(N2CCN(c3ccccn3)CC2)c2c(C)c(C(=O)Nc3c(F)cc(F)cc3Br)sc2n1	inconclusive: 56.2 µM [inhibitor, partial curve, poor fit]
O=C(NCn1cnccc1=O)c1ccccc1	inconclusive: 79.4 µM [inhibitor, single point]
COc1ccc(Cl)cc1Nc1nc(-c2sc(NC(=O)C(C)(C)C)nc2C)cs1	inconclusive: 100 µM [inhibitor, single point]
CCCSc1cc(NCCOC(C)=O)c([N+](=O)[O-])c2nonc12	inactive
Cn1cccc1Cc1nnc(SCC(=O)Nc2ccc(F)cc2)n1CCc1ccccc1	inactive
CCCn1c(-c2ccc(F)cc2)n[nH]c1=S	inconclusive: 79.4 µM [inhibitor, single point]
CNC(=O)Nc1ccc2snnc2c1	inconclusive: 12.6 µM [inhibitor, single point]

SMILES	Potency
O=C(Nc1cnn(Cc2ccc(F)cc2)c1)c1noc2c1CCCC2	inconclusive: 14.1 µM [inhibitor, single point]
Cc1ccc(C)c(N2CCN(C(=O)CCCCCn3c(=S)[nH]c4ccc(N5CCOCC5)cc4c3=O)CC2)c1	inconclusive: 112 µM [inhibitor, partial curve]
CCOC(=O)c1cnc2ccc(Br)cc2c1NCC(C)O (stereo not given)	inconclusive: 100 µM [inhibitor, single point]
O=C(Nc1nc(-c2ccc(S(=O)(=O)N3CCOCC3)cc2)cs1)c1ccccc1	inconclusive: 56.2 µM [inhibitor, partial curve, poor fit]
Cc1csc2ncc(C(=O)Nc3cccc(C(F)(F)F)c3)c(=O)n12	inconclusive: 89.1 µM [inhibitor, single point]
Cc1ccc(CN2CCCC(C(=O)N3CCCC3)C2)cc1 (stereo not given)	inconclusive: 12.6 µM [inhibitor, single point]
O=S(=O)(c1ccc(N2CCC(c3ccc(Cl)cc3)=N2)cc1)N(CCO)CCO	inactive
O=C1CCN(CCc2ccccc2)CCN1[C@H](CSc1ccccc1)Cc1ccccc1	inactive
CCC1Nc2ccccc2-c2nnc(SC)nc2O1 (stereo not given)	inactive
COc1cccc(OC)c1C(=O)Nc1ccccc1C(=O)N1CCCCCC1	inconclusive: 79.4 µM [inhibitor, single point]
COCCN=C1NN=C(c2ccc(NC(C)=O)cc2)CS1	inactive
CCOc1ccc(-c2csc3ncn(-c4ccc(OC)cc4)c(=O)c23)cc1	inconclusive: 70.8 µM [inhibitor, single point]
CCN(CC)S(=O)(=O)c1cc(C(=O)OC(C)C(=O)NCc2ccco2)ccc1C (stereo not given)	inconclusive: 89.1 µM [inhibitor, single point]
Cc1cc(C)c(S(=O)(=O)NC2CC3CCC2C3)c(C)c1 (stereo not given)	inactive
Cc1ccc(CNc2ccc3c(c2)ncn3C(C)(C)C)cc1	inactive
CCCc1nn2c(N)c(/C=C3\C=Nc4ccccc43)c(=O)nc2s1	inconclusive: 79.4 µM [inhibitor, single point]
CCn1c(COc2ccccc2)nnc1SCC(=O)Nc1ccc(N2CCOCC2)cc1	inconclusive: 31.6 µM [inhibitor, single point]
CC1CN(S(=O)(=O)c2cc(C(=O)N(C)Cc3cccs3)ccc2Cl)CC(C)O1 (stereo not given)	inconclusive: 100 µM [inhibitor, single point]
COc1ccc(CCn2c(C(C)C)nc3c(c(=O)c4ccccc4n3C)c2=O)cc1	inconclusive: 89.1 µM [inhibitor, single point]
O=S(=O)(NC1CCCCC1Nc1ccccc1)c1ccccc1 (stereo not given)	inactive
Cc1cc(NC(=O)c2ccco2)c(=O)n(Cc2c(F)cccc2Cl)c1	inconclusive: 100 µM [inhibitor, single point]
CNC(=O)CSc1nc2cccnc2n1-c1ccc(F)cc1	inconclusive: 15.8 µM [inhibitor, single point]
O=C1CSc2ccccc2N1Cc1ccccc1F	inconclusive: 100 µM [inhibitor, single point]
COc1cc(=O)n2c(n1)SCCC2	inconclusive: 25.1 µM [inhibitor, single point]

SMILES	Potency
C1CCc2nc3c(nc2C1)CCCC3	inconclusive: 12.6 µM [inhibitor, single point]
Cc1cc(S(=O)(=O)N2CCCOC2CNC(=O)C(=O)NCc2ccco2)ccc1F (stereo not given)	inconclusive: 70.8 µM [inhibitor, partial curve, poor fit]
O=[N+]([O-])c1ccc(Sc2ncccn2)c([N+](=O)[O-])c1	inactive
COc1ccc(-c2c(-c3ccccc3OC)sc3ccccc23)cc1C=O	inconclusive: 63.1 µM [inhibitor, partial curve, poor fit]
Cc1cnc(C(=O)OCC(=O)Nc2cc(S(=O)(=O)N3CCCCC3)ccc2Cl)cn1	inconclusive: 14.1 µM [inhibitor, single point]
C=CCn1c(C)cc(C(=O)CSc2nc3ccccc3[nH]2)c1C	inactive
COc1ccc(/C=C(/CC(=O)NCc2ccc(Cl)cc2)c2nc3ccccc3s2)cc1	inconclusive: 251 µM [inhibitor, partial curve, poor fit]
CCN(CC)c1ccc(O)c(C=Nc2ccc(C)c(C)c2)c1	inconclusive: 100 µM [inhibitor, single point]
Cc1cc(NCCCN2CCOCC2)n2c(nc3ccccc32)c1C#N	inactive
CC(C)=NOCc1ccc(-c2cn([C@@H]3COC[C@H]3O)nn2)cc1	inconclusive: 100 µM [inhibitor, single point]
CCCc1nnc(SCC(=O)N2CCCC2)n1Cc1ccco1	inactive
O=C(Nc1ccccc1)N1CCCN(Cc2c(F)cccc2Cl)CC1	inconclusive: 100 µM [inhibitor, single point]
O=c1c2ccccc2sc2ccc(Cl)cc12	inconclusive: 112 µM [inhibitor, single point]
Cc1ccccc1-n1c(SCC(=O)c2cc(C)n(C)c2C)nnc1-c1ccncc1	inactive
CCC(C)c1ccccc1N1CC(C(=O)Nc2ccc(N3CCOCC3)cc2)CC1=O (stereo not given)	inconclusive: 22.4 µM [inhibitor, single point]
Cc1ccc(CN2CCS(=O)(=O)CC2)o1	inconclusive: 79.4 µM [inhibitor, single point]
CN(CCO)c1ccc(/C=N/Nc2nncc3ccccc23)cc1	inconclusive: 224 µM [inhibitor, partial curve, poor fit]
Cc1ccsc1C1C(C#N)=C(N)OC2=C1C(=O)CCC2 (stereo not given)	inactive
COc1cccc(C(=O)NCC2(c3ccccc3)CCCC2)c1OC	inconclusive: 22.4 µM [inhibitor, single point]
CCOC(=O)CCC(=O)NNC(=O)COc1ccc(C(C)C)cc1Br	inconclusive: 100 µM [inhibitor, single point]
COc1ccc(/C=N/Nc2nc(Nc3ccccc3)nc(N3CCCCC3)n2)c(OC)c1	inactive
Cc1cc2cc(CNC(=O)c3ccc(S(=O)(=O)N4CCCCC4)cc3)ccc2n1C	inconclusive: 79.4 µM [inhibitor, single point]

Another view of 14 compounds above.
SMILES | Potency
COc1ccc(/C=C(/CC(=O)NCc2ccc(Cl)cc2)c2nc3ccccc3s2)cc1 | inconclusive: 251 µM [inhibitor, partial curve, poor fit]
CCN(CC)c1ccc(O)c(C=Nc2ccc(C)c(C)c2)c1 | inconclusive: 100 µM [inhibitor, single point]
Cc1cc(NCCCN2CCOCC2)n2c(nc3ccccc32)c1C#N | inactive
CC(C)=NOCc1ccc(-c2cn([C@@H]3COC[C@H]3O)nn2)cc1 | inconclusive: 100 µM [inhibitor, single point]
CCCc1nnc(SCC(=O)N2CCCC2)n1Cc1ccco1 | inactive
O=C(Nc1ccccc1)N1CCCN(Cc2c(F)cccc2Cl)CC1 | inconclusive: 100 µM [inhibitor, single point]
O=c1c2ccccc2sc2ccc(Cl)cc12 | inconclusive: 112 µM [inhibitor, single point]
Cc1ccccc1-n1c(SCC(=O)c2cc(C)n(C)c2C)nnc1-c1ccncc1 | inactive
CCC(C)c1ccccc1N1CC(C(=O)Nc2ccc(N3CCOCC3)cc2)CC1=O (stereo not given) | inconclusive: 22.4 µM [inhibitor, single point]
Cc1ccc(CN2CCS(=O)(=O)CC2)o1 | inconclusive: 79.4 µM [inhibitor, single point]
CN(CCO)c1ccc(/C=N/Nc2nncc3ccccc23)cc1 | inconclusive: 224 µM [inhibitor, partial curve, poor fit]
Cc1ccsc1C1C(C#N)=C(N)OC2=C1C(=O)CCC2 (stereo not given) | inactive
COc1cccc(C(=O)NCC2(c3ccccc3)CCCC2)c1OC | inconclusive: 22.4 µM [inhibitor, single point]
CCOC(=O)CCC(=O)NNC(=O)COc1ccc(C(C)C)cc1Br | inconclusive: 100 µM [inhibitor, single point]
